Test results from PubChem BioAssay AID1347423 (Functional Genomics Laboratory (NCATS/FGL), 2020).
Hit rate of the full screen: of about 52,000 sequences, about 210 (0.4%) were called active.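 Rule for the calls: active = gene whose silencing raises cell survival under the drug, median off-target-corrected z-score across its silencing RNAs 2 or more; inactive = the rest.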 This is one part of the list.

Assay: Resistance to Poly (ADP-Ribose) Polymerase inhibitor: Gene Identification via Genome-wide siRNA Screen
Conditions: mouse BRCA2 R2336H ES cells, olaparib, CellTiter-Glo viability; hits give high values
Summary of the method: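 Mouse BRCA2 R2336H ES cells were reverse-transfected with siRNA (20 nM final), treated at 48 h with 500 nM olaparib, and read by CellTiter-Glo after 72 h. Scores: MAD-based z per siRNA, median per gene, seed off-target correction.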

| Sequence | z-score |
| --- | --- |
| GCAAUAAUAGAAUGAGAAGTT against Ott | inactive: 0.755 |
| GGCUCUUGGGAGAUUUAAATT against Sp5 | inactive: 0.923 |
| GGCAGAAUGGGCUUAUGUCTT against 5730502D15Rik | inactive: -2.66 |
| GGACCGGUUUAUUUGGCGGTT against Mmp2 | inactive: -0.987 |
| CCGACUGCUCGUAAAUUCATT against 2410011G03Rik | inactive: 0.899 |
| GGCUUUCUAUACGUGUGCUTT against Olfr1161 | inactive: 0.0115 |
| GAGGAUUCUGUAGGUCUUCTT against Defb19 | inactive: -0.399 |
| GGGCAAAAAAGGUCUAUUCTT against Rfpl4 | inactive: -0.82 |
| GGAAAUUACUUUGAUACUCTT against Rfx3 | inactive: -0.206 |
| GGCUUAUUUUUCUUCAGUUTT against Ext1 | inactive: -0.0515 |
| GGAGAAAUCUCAAAGAUCUTT against 4930563E19Rik | inactive: 0.925 |
| CCCUAUGGUGAAAUCUGUCTT against 3110038B19Rik | inactive: -0.585 |
| GGCCUCAAGGUGAUGGAAATT against 5430419D17Rik | inactive: 0.581 |
| GGGAGUGGGAUUUUGCCUUTT against Sfn | inactive: -0.125 |
| GGAUAGCAAUUGUCUUUCATT against 6.72E+21 | inactive: -0.794 |
| GUUACUUUGAUGUUGUCUATT against Pdgfrl | inactive: 0.387 |
| GCAGAUUUAUUCCUCACGATT against D8Wsu49e | inactive: 1.63 |
| GGACUCUUUUUUUACCUUGTT against 2310036O22Rik | inactive: -1.83 |
| GGGCUACAUAACCAUCCGUTT against Lu | inactive: 0.0385 |
| CCAAAUAUCCGGCCAUGACTT against Lgals6 | inactive: -0.132 |
| GCUGACAGACUUAUUACUUTT against Cul4b | inactive: -1.91 |
| GGAGUCUUAUGUCUUGGAUTT against Aldh1b1 | inactive: 0.275 |
| GGGAAAAAACCCUGUUCUUTT against Zfp11 | inactive: -0.0585 |
| CCUGAUAAGCAAAUACGGCTT against 2210417D09Rik | inactive: -0.0638 |
| GGCUCAAGGAACAUGAGGCTT against BC048502 | inactive: -0.578 |
| GGGACUCCCAAACAACAAATT against Lair1 | inactive: 0.167 |
| CCUGUAGCAUUACGUUAGCTT against 9030611K07Rik | inactive: 0.841 |
| GGAGAUCAUCAACAUCGCCTT against Nptx2 | inactive: 1.71 |

For reference, part of the list above:

| Sequence | z-score |
| --- | --- |
| GCUGACAGACUUAUUACUUTT against Cul4b | inactive: -1.91 |
| GGAGUCUUAUGUCUUGGAUTT against Aldh1b1 | inactive: 0.275 |
